Test results taken from article PMC4838231.
Where two headings read alike, the source gives them in different places. No constants are given. Whether binding was seen depends on the method and setting. Some binding calls cover weakened binding; strength is not graded here. Where a sequence is shown, tags or fusion partners need not be part of it.

Sequences of proteins named here, by UniProt entry; tags and fusion partners are left off. Residues count along the entry.
UniProt P29311, residues 5-267: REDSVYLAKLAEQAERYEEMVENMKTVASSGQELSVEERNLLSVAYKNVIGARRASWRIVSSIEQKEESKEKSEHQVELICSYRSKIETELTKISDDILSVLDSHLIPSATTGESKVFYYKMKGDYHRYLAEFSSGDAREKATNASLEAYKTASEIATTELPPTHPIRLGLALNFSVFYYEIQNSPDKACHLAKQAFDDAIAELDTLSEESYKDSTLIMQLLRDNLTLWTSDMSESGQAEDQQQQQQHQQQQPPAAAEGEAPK

Key:
[1] = biological target: T1, Kin2 (full-length, Gal4 DNA-binding domain fusion from pGBDU-KIN2) (S. cerevisiae) (UniProt P13186); experiment: two-hybrid; library screens in yeast strain pJ69-4A or pJ69-4α with a pOAD-cDNA prey library; baits in pGBDU (Gal4 DBD); selection on SC-Leu-Ura-His with 3 mM 3-AT at 30°C, then SC-Leu-Ura-Ade; inserts sequenced
T1 sequence: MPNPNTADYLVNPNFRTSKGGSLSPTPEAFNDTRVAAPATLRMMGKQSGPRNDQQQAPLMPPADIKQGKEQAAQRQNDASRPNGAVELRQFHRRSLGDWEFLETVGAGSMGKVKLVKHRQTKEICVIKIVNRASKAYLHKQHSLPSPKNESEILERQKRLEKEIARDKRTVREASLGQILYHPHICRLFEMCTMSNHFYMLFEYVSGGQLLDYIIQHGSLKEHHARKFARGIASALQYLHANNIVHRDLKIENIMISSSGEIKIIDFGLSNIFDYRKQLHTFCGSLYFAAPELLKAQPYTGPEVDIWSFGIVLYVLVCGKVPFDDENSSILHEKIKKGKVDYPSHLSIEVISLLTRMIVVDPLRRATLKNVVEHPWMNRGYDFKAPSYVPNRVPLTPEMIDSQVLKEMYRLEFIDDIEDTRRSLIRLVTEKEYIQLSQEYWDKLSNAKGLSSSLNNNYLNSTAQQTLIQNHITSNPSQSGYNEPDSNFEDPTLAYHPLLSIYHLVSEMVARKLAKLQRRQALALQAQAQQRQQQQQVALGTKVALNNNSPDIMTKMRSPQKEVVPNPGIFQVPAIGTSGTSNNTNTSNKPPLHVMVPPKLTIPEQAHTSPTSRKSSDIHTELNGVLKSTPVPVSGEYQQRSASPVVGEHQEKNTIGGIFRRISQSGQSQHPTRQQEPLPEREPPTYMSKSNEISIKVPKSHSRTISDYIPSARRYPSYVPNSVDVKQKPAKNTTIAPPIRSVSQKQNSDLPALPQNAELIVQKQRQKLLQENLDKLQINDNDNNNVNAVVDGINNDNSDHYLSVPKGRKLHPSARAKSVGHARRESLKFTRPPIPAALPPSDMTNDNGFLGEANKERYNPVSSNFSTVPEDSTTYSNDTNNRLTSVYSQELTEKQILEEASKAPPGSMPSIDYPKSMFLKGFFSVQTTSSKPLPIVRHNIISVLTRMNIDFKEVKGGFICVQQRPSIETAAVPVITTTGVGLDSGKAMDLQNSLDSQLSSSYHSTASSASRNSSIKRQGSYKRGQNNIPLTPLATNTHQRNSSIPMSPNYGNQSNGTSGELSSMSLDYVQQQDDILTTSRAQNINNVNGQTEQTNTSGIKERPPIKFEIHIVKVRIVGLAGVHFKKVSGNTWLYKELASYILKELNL

[2] = biological target: T2, Kin2-NT (a.a. 1–526), Gal4 DNA-binding domain fusion (S. cerevisiae) (UniProt P13186); experiment: two-hybrid; directed assay: pJ69-4α with pGBDU-C1-based baits mated with pJ69-4A with pOAD- or pGAD-based preys; growth of diploids on SC-Leu-Ura-His (with 3 mM 3-AT for Bmh1) or SC-Leu-Ura-Ade at 30°C for 3 days
T2 sequence: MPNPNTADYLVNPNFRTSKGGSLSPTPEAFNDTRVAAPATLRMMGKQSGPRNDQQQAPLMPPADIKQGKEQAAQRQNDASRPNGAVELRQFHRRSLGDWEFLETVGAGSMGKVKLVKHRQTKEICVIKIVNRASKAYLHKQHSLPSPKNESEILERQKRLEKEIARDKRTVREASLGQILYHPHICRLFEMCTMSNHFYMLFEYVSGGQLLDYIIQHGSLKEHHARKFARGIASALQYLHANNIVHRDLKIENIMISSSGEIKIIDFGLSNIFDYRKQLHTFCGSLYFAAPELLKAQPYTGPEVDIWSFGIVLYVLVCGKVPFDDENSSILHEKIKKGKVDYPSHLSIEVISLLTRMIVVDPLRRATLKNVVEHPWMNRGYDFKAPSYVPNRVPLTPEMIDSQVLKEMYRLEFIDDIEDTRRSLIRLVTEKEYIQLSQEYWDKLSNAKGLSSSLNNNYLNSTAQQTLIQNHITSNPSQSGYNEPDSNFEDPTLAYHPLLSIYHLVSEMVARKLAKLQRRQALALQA

[3] = biological target: T3, Kin2-NT-KD (kinase-dead Kin2-NT, lysine 128 replaced by methionine), Gal4 DNA-binding domain fusion (S. cerevisiae) (UniProt P13186); experiment: as above
T3 sequence: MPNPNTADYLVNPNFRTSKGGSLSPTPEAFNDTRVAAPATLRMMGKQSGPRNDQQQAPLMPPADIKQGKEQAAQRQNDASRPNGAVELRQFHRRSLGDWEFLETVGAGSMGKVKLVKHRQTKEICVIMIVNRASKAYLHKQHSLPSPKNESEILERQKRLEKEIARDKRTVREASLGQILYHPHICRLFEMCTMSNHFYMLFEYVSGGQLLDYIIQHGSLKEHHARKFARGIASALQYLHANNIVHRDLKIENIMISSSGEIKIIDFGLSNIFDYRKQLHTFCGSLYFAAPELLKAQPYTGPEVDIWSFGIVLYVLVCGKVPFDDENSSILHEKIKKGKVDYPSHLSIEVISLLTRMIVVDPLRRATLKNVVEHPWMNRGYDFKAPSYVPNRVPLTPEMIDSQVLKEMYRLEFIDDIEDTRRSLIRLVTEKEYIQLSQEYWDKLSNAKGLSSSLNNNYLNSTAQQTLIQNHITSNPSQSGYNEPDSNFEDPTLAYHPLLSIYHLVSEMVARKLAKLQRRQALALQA

[4] = biological target: T1, Kin2 (full-length, Gal4 DNA-binding domain fusion from pGBDU-KIN2) (S. cerevisiae); experiment: two-hybrid; library screens in yeast strain pJ69-4A or pJ69-4α with a pOAD-cDNA prey library; baits in pGBDU (Gal4 DBD); selection on SC-Leu-Ura-His with 3 mM 3-AT at 30°C, then SC-Leu-Ura-Ade; inserts sequenced; remark: listed apart in the source
[5] = biological target: T4, Kin2-Δ42 (Gal4 DNA-binding domain fusion from pGBDU-KIN2-Δ42) (S. cerevisiae) (UniProt P13186); experiment: as above
T4 sequence: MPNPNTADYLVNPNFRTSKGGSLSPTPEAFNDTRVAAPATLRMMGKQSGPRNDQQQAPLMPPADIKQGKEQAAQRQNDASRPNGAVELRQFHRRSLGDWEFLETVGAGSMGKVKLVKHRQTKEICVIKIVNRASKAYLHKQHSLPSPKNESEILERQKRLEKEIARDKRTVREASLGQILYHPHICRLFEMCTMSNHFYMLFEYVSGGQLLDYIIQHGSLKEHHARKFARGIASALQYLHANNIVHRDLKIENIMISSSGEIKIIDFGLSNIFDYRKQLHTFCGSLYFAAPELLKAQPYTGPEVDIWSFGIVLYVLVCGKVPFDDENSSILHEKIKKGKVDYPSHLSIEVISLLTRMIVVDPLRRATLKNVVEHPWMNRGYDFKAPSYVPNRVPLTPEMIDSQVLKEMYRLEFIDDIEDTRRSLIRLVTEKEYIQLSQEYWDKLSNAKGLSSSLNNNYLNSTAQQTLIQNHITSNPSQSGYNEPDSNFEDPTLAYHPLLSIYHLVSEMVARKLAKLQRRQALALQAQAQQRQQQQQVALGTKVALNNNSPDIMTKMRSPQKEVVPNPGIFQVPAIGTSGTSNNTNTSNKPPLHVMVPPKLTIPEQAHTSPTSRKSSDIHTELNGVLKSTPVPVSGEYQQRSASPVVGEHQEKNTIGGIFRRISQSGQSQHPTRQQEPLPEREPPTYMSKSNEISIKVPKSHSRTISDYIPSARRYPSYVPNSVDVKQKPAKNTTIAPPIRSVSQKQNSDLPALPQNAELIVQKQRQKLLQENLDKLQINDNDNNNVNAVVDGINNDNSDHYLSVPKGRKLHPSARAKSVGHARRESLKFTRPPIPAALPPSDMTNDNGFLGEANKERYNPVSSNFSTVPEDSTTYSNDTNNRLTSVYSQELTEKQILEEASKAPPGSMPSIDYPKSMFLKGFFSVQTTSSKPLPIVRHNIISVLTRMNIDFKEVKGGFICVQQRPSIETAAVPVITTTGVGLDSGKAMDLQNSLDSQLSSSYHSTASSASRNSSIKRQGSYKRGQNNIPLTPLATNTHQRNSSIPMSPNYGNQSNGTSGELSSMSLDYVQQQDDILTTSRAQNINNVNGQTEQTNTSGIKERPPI

[6] = biological target: T4, Kin2-Δ42 (Gal4 DNA-binding domain fusion from pGBDU-KIN2-Δ42) (S. cerevisiae); experiment: two-hybrid; directed assay: pJ69-4α with pGBDU-C1-based baits mated with pJ69-4A with pOAD- or pGAD-based preys; growth of diploids on SC-Leu-Ura-His (with 3 mM 3-AT for Bmh1) or SC-Leu-Ura-Ade at 30°C for 3 days

Bmh1^5-267 (N-terminally truncated Bmh1), Gal4 activation domain fusion from pOAD (from UniProt P29311 5-267) (domain or fragment)
binding [1]: binds | binding [2]: binds | binding [3]: binds

B1: Irc8 (a.a. 377–822), Gal4 activation domain fusion from pOAD (domain or fragment, UniProt P47046 377-822)
chain: LRVTDKMISPQQSTQNEDSYQATPLIPQVEVDDDFYVGDILMTNELQDIPQVPRISSDIEDDFEQQYTKHVDLPARVTLEMWEKDQEKILQKVTTNRDKSKLLPPFRFTSESDMDPSTSTELEVELHAQNNFSFPFKSAGLQIATSDQFNQQEFKTSDTISELDEYLHDPSIQEEDASQLIESSLNQNNLSSTTIDNGPKDMSRFSTRHSPTKSIISMISGSGSVKHQHSHSTLSNFFTGHSRNNSQINQLLQGSSSNMMSNTSPHSSPTKSLRMRFGKKLSLSNISDTMSPYEGSTTDPINYSFGHGHNKNQSIDFSYVRTLQSSHSPTKSTSGNSRRDSLNNDRTQSTVNERALRTASTLFYLQHNNATCTLNGEEPVLDTPQSIQSSSSGSEQESAGSGSGYPEVVFSEYDREKWNVLRNLKEIAPEKTIESGPVEELVSPSK
binding [4]: binds

B2: Tos1 (a.a. 192–455), Gal4 activation domain fusion from pOAD (domain or fragment, UniProt P38288 192-455)
chain: ESQSSISSSKTTSSAAAASSSSSSSSNTNGDWSRGSYFVPGSTSNCTFMNNQGGTAGSGVWSSCFGNSISFAASDGVSGAASAQALGDVTIKSGNEFMIFSGEECSGNNGDCGYYREGIPAYHGFGGADKIFVFEFSMPSDTSGSAYNQDMPAIWLLNAKIPRTLQYGDASCSCWKTGCGEMDLFEILTAGSDKLISHIHDGQDGGTQDYFERPTDGTLKAAVIFNSSDKTIHIIEVDESFDATLSDDVVDQWLSKSGSSAALP
binding [5]: binds

B3: Tos1 (a.a. 201–455), Gal4 activation domain fusion from pOAD (domain or fragment, UniProt P38288 201-455)
chain: KTTSSAAAASSSSSSSSNTNGDWSRGSYFVPGSTSNCTFMNNQGGTAGSGVWSSCFGNSISFAASDGVSGAASAQALGDVTIKSGNEFMIFSGEECSGNNGDCGYYREGIPAYHGFGGADKIFVFEFSMPSDTSGSAYNQDMPAIWLLNAKIPRTLQYGDASCSCWKTGCGEMDLFEILTAGSDKLISHIHDGQDGGTQDYFERPTDGTLKAAVIFNSSDKTIHIIEVDESFDATLSDDVVDQWLSKSGSSAALP
binding [5]: binds

B4: Pea2 (Gal4 activation domain fusion from pGAD-PEA2) (protein, UniProt P40091 1-420)
chain: MHKFDLELSRRANPLLFSAERYEEYPLKYDELKQYLLSQNPSHPHHNSRPYTSIDYFDYLLYRSKNDESEIDLDKKLVSEFALYYVQKEHLNSDDLNPTLNELLKLQPKSADWYEMMLRILESINTTGIDQLTKENNNSFPNSKRARSSTNMGGTDKFNKGAYHTDKADDDKNEILQELTSFLMSNSIQKGIDIKPIPLDDPVKFLKNGINSILDTCVSLEKNTSSPPISPNAAAIQEEDSSKKLEELETAFSDLQLAHNFLTKQFENDRAEYVQDIEKLTRTNRELQDKLLNNHSNLSKTEKKLHELEQENKELEKANNKLNSSRHNFGMSSPASSPVTWDPSSPSSVGSPTSGSGSRSLSIMTSEFKKVLTSTQRKYEKELSDEREHRFKLERELALLKNAEANTSLALNRDDPPDML
binding [6]: binds
